From PubChem BioAssay AID2685 (National Center for Advancing Translational Sciences (NCATS), 2010)
This is one part of the list. These are further read-outs of the screen, such as a control signal, another cell line or another target. No call is given for them. The list favours compounds with an active or inconclusive main result. Potencies come from curve fits of mixed quality, noted in brackets.

Assay: qHTS Assay for Lipid Storage Modulators in Drosophila S3 Cells;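 for cell number change: cells counted by Cell Tracker Red CMTPX staining in the red channel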
Details: BODIPY lipid droplet fluorescence, 18-24 h; for cell number change: measured here: cell count max response, cells fed with added oleic acid
Method in brief: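 Laser-scanning cytometry quantifies lipid droplet accumulation (500–530 nm total intensity; droplet/cell object ratio) in oleic acid-fed (400 uM added) Drosophila S3 cells treated with a concentration series. 20 uM Triacsin C defined 100% inhibition.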

[1] = measured here: cell number channel AC50, cells fed with added oleic acid
[2] = measured here: lipid fluorescence (Fed channel) AC50, cells fed with added oleic acid

Row | SMILES | cell number change [%] | AC50 [1] | AC50 [2]
1 | Cc1c(N2C(=O)CSC2c2ccc(F)cc2)c(=O)n(-c2ccccc2)n1C (configuration not stated) | -8.86 | 0.291 µM [rising, full curve, poor fit] | 1.46 µM [rising, partial curve]
2 | O=C1CSC(c2ccccn2)N1c1ccc(F)cc1F (configuration not stated) | – | 6.51 µM [falling, single point] | –
3 | CC(C)(C)C(=O)/C=C(\N)c1ccncc1 | 6.84 | – | –
4 | CC(C(=O)Nc1ccccc1C(=O)O)n1c(C(F)(F)F)nc2ccccc21 (configuration not stated) | 29 | – | –
5 | NC(=O)c1cc([N+](=O)[O-])ccc1NCc1ccc(N)cc1 | 0.528 | – | 0.184 µM [falling, full curve, poor fit]
6 | Cc1ccc2nc(NC(=O)Cn3nc(C)c([N+](=O)[O-])c3C)sc2c1 | -1.84 | 0.651 µM [falling, full curve] | –
7 | O=C(CSc1nc2ccccc2o1)N/N=C/c1ccc(C(=O)O)cc1 | -14.4 | 0.103 µM [falling, full curve, poor fit] | 0.116 µM [falling, full curve, poor fit]
8 | Cc1ccc(C)c(N2CCN(C(=O)CCCn3c(=O)c4cccn4c4cccnc43)CC2)c1 | – | – | 6.51 µM [falling, partial curve]
9 | COc1ccc2c(c1)cc1n2CCN=C1NCCO | -74.6 | 20.6 µM [falling, partial curve] | 29.1 µM [falling, single point]
10 | Cc1ccc(-c2noc(CCC(=O)Nc3cc(C)ccn3)n2)cc1 | 15.6 | – | 29.1 µM [falling, partial curve]
11 | CCn1c2ccccc2c2cc(NC(=O)CN3CCCC3)ccc21 | 9.27 | – | –
12 | Cc1c(C#N)c2ncn(CCCN(C)C)c(=O)c2n1-c1ccccc1 | 0.75 | – | 0.92 µM [falling, full curve]
13 | Cc1cccc(C)c1N1CCN(CCn2c(=S)[nH]c3ccccc3c2=O)CC1 | -34 | 18.4 µM [falling, single point] | –
14 | O=C1c2cccc3cccc(c23)C(=O)N1OS(=O)(=O)c1ccc(Cl)cc1 | -69.8 | 3.66 µM [falling, full curve] | 6.51 µM [falling, partial curve, poor fit]
15 | Cc1ccc(C2C(=O)c3ccccc3C2=O)cc1 | -43.1 | 0.00517 µM [falling, full curve, poor fit] | –
16 | CC(NC(=O)c1ccccc1F)C12CC3CC(CC(C3)C1)C2 (configuration not stated) | -50.7 | 16.4 µM [falling, partial curve] | 18.4 µM [falling, single point]

One compound at a time, as listed above. Order of values: cell number change [%] | AC50 [1] | AC50 [2]
COc1ccc2c(c1)cc1n2CCN=C1NCCO in the list: -74.6 | 20.6 µM [falling, partial curve] | 29.1 µM [falling, single point]
Cc1ccc(C2C(=O)c3ccccc3C2=O)cc1 in the list: -43.1 | 0.00517 µM [falling, full curve, poor fit] | –
